Laboratory results taken from publication PMC12097036.
These are yes or no findings as the source states them, for the method shown. For some assays here: Binding seen in cells or lysates may run through a third protein. Some entries that bind do so weakly or less than the wild type. Sequences can lack the tags named with a protein.

T1: Flag-RAB3B (human) (UniProt P20337)
T1 sequence: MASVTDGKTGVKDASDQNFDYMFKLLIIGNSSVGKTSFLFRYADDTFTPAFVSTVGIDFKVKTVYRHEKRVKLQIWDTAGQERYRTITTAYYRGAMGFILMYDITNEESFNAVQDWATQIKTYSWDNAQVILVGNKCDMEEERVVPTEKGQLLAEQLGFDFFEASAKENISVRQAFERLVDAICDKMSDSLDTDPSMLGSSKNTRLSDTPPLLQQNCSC


Tests used:
Flag-RAB3B (human) = molecular target: T1, Flag-RAB3B (human); assay: co-IP; CH22 cell lysates (150 mM NaCl, 0.5% NP-40, 1 mM EDTA, 10% glycerophosphate, 50 mM Tris-Cl pH 7.4); M2 beads for Flag proteins (4 °C, 120 min) or antibody with protein A/G agarose for endogenous proteins (4 °C, overnight); immunoblot; cells with or without RAB3B overexpression, siRAB3B or RAB3B knockdown
[1] = molecular target: DUSP12 protein with a GST-tag (UniProt Q9UNI6); assay: pull-down; GST pull-down: GST-tagged DUSP12 on GST-tag magnetic beads (4 °C, 60 min), prey added at 4 °C overnight, with MBP-RAB3B or its truncated forms; immunoblot; both purified

binding (Flag-RAB3B (human)) | binding [1] | Molecule
binds |  | DUSP12 (from UniProt Q9UNI6 1-340) (enzyme)
 | binds | RAB3B protein with MBP-tag (protein, UniProt P20337 1-219) MASVTDGKTGVKDASDQNFDYMFKLLIIGNSSVGKTSFLFRYADDTFTPAFVSTVGIDFKVKTVYRHEKRVKLQIWDTAGQERYRTITTAYYRGAMGFILMYDITNEESFNAVQDWATQIKTYSWDNAQVILVGNKCDMEEERVVPTEKGQLLAEQLGFDFFEASAKENISVRQAFERLVDAICDKMSDSLDTDPSMLGSSKNTRLSDTPPLLQQNCSC
